Where two headings read alike, the source gives them in different places. No constants are given. Whether binding was seen depends on the method and setting. In cells and extracts the contact can be indirect. A yes stands for co-enrichment or nearness to the bait. Other partners may have been found. Sequences can lack the tags named with a protein.

By UniProt entry, the sequences of proteins in these tests, tags left out. Residues count along the entry.
UniProt P0DMV8: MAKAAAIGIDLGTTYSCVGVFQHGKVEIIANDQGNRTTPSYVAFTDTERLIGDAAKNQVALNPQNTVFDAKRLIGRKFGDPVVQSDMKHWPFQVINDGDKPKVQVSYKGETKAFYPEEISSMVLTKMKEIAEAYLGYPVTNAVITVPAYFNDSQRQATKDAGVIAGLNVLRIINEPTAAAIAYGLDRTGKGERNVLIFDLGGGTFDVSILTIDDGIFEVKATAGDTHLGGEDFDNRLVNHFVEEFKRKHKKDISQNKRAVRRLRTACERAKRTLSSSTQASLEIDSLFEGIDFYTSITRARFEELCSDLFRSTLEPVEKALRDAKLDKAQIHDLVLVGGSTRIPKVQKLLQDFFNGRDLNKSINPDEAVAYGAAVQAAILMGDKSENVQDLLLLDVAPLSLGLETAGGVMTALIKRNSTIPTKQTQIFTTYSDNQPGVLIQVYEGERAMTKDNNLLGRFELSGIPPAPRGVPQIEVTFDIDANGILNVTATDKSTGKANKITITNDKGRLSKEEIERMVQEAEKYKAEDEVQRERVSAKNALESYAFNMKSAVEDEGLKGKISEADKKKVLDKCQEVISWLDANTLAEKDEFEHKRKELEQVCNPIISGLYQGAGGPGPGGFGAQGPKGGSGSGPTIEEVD
UniProt Q9NYU2, residues 43-1555: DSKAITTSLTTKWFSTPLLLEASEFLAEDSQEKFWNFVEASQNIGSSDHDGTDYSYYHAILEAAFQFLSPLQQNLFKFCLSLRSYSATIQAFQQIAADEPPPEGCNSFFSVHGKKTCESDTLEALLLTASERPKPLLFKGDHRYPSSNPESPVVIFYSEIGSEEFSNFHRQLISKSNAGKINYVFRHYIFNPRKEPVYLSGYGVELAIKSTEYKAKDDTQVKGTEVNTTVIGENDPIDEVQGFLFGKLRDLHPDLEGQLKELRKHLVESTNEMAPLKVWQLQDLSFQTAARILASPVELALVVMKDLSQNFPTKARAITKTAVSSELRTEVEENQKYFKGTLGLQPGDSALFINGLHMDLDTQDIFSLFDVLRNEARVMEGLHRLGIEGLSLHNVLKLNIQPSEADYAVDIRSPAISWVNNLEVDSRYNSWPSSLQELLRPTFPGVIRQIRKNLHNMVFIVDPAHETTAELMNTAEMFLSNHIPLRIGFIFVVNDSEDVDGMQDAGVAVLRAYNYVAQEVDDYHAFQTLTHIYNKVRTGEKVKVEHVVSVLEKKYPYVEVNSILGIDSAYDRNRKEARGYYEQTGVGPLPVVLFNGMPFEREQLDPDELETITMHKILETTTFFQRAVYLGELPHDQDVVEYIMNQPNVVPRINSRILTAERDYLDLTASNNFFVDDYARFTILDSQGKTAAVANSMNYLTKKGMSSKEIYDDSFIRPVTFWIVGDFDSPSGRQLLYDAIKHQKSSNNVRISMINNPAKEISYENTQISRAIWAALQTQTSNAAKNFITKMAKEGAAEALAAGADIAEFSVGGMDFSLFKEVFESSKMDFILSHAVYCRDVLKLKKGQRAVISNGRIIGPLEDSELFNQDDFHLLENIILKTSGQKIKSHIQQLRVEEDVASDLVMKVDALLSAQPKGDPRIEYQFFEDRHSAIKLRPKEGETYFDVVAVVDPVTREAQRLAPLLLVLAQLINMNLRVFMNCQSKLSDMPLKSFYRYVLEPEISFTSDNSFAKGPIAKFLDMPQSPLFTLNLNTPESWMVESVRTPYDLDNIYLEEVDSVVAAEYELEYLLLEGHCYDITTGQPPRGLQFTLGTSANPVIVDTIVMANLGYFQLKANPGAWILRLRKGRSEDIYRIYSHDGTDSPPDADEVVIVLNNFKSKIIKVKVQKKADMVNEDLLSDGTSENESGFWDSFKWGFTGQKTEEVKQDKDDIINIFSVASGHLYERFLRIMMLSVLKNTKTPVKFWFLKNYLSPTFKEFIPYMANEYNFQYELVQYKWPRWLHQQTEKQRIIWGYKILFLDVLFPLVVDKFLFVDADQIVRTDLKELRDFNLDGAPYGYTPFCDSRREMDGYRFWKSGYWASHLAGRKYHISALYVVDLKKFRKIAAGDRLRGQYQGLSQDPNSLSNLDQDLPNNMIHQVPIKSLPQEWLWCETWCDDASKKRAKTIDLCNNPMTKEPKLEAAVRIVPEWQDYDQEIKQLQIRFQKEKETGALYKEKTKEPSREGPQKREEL
UniProt P07996, residues 19-1170: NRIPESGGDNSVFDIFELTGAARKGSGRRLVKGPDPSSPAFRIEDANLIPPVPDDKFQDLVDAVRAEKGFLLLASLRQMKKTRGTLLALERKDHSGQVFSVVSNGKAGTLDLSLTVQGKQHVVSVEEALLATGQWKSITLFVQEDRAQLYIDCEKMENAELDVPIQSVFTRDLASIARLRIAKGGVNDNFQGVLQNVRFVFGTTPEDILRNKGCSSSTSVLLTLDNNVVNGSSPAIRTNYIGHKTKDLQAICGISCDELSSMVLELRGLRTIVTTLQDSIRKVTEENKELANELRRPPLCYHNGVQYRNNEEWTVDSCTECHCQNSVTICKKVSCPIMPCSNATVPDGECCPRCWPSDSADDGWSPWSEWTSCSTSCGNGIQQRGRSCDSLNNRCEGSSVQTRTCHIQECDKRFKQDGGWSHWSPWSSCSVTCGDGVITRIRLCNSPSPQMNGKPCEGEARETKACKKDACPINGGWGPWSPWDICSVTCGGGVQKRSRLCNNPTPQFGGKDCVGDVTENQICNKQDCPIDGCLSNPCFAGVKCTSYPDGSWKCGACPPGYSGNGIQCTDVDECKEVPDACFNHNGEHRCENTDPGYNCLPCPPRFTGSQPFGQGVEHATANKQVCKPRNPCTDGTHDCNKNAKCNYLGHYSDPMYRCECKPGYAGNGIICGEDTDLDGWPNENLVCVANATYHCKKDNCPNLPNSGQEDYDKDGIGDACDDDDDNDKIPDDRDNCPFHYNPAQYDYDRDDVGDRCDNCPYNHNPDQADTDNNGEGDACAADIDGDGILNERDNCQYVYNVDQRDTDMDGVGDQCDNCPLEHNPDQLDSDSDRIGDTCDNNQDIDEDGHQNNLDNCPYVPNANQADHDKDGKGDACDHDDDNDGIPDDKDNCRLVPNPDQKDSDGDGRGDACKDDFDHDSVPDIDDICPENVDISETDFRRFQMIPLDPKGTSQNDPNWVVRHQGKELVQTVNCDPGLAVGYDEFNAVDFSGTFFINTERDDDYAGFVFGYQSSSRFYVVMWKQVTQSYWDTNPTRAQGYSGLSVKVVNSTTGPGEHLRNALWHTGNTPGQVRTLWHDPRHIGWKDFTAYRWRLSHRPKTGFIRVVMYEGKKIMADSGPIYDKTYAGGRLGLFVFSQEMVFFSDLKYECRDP
UniProt P68104: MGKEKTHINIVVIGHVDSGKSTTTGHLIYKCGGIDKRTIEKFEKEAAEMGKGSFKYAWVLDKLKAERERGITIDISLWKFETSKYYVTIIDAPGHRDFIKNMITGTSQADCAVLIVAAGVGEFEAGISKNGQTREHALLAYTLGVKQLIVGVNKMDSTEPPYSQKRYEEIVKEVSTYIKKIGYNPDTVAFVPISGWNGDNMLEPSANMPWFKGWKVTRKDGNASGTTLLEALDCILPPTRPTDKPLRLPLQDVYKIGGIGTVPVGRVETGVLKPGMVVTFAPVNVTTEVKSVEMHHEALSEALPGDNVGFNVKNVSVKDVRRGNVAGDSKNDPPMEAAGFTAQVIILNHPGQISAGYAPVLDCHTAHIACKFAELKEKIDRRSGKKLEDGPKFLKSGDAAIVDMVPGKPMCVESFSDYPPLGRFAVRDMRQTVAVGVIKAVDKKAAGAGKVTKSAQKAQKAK
UniProt P11021, residues 19-654: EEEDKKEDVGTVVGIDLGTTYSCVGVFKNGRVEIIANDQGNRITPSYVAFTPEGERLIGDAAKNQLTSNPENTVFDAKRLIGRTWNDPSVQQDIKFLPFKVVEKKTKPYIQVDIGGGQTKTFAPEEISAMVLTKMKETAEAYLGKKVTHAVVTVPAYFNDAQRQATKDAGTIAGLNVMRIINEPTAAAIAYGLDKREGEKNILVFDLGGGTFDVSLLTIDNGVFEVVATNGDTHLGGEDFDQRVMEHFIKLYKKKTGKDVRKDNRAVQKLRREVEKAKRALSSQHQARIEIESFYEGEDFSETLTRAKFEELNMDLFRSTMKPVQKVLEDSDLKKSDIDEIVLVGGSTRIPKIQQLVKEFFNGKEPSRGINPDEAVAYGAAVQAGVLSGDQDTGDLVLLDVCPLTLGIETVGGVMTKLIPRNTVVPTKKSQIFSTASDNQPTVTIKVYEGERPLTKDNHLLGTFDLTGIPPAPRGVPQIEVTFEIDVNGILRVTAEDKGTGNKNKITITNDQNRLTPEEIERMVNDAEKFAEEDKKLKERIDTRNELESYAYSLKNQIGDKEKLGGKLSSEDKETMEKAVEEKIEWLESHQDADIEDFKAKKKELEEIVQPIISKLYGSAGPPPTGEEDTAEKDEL

The target of assay [1] is T1, HA-tagged human HHIP (hedgehog interacting protein) (human) (UniProt Q96QV1).
T1 sequence: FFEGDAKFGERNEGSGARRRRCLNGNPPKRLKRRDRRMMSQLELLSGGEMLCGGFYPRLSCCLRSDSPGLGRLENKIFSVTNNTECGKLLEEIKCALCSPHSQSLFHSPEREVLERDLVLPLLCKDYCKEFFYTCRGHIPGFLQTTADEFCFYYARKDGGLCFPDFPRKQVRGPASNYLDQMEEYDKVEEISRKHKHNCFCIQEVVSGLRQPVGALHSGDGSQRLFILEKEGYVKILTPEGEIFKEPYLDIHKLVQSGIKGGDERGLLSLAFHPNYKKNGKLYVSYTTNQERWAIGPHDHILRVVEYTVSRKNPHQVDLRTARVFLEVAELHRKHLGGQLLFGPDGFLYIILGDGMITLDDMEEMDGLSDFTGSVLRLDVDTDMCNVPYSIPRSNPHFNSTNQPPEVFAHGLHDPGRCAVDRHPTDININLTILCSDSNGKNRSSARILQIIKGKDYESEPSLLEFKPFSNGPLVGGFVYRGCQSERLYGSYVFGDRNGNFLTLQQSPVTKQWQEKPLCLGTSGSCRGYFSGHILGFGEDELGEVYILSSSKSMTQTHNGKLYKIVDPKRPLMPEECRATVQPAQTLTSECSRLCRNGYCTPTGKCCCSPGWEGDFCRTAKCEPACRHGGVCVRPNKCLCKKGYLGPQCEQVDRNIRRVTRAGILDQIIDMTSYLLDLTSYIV
In words: affinity purification with mass spectrometry.

The target in assay [2] is T1, HA-tagged human HHIP (hedgehog interacting protein) (human). As to the kind of experiment: affinity purification with mass spectrometry. The source holds these as a separate data set.

Consider HSPA1A (from UniProt P0DMV8 1-641), for which the binding entry in assay [1] is on record as “binds”. In the case of UGGT1 (from UniProt Q9NYU2 43-1555), the binding result in assay [2] and in assay [1] was “binds” throughout. Turning to “Thrombospondin 1 (THBS1) (from UniProt P07996 19-1170)”, the binding entry in assay [1] was “binds”.

Regarding TP53 (from UniProt P04637 1-393), the binding entry in assay [1] was “binds”. Same read-out and setting: as for EEF1A1 (from UniProt P68104 1-462), the entry is “binds”. As to HSPA5 (from UniProt P11021 19-654), the binding entry in assay [2] and in assay [1] was “binds” in each case.

Source of the values: publication doi:10.1101/2024.04.01.586839.
